± gives the standard deviation. Only a part is listed here, and it is no random draw. Many of these values have a large error. This is one part of the list.
Assays:
[1] = system: MILI (PIWIL2) piRISC loaded with L1MC piRNA (26 nt); test: pre-steady-state target cleavage rate (min^-1); higher = faster piRNA-guided slicing of the target; conditions: guide: L1MC piRNA 5'p-UAACUAAAUACUAUGCAAGCUGUAGG
In short: (§1)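 Cleave-'n-Seq reactions paired 0.1 nM transcribed, DNA-blocked target RNA library with 1 nM active affinity-purified piRISC holding one synthetic guide, plus or minus 500 nM GTSF1 partner protein, in HEPES–potassium acetate buffer at 33 °C for 0–8 or 0–960 min. After sequencing of uncleaved targets and normalisation to depth and weakly complementary targets, the pre-steady-state cleavage rate was taken from a burst-and-steady-state fit. Three trials were pooled, and k3 was capped at 0.0001 min^-1.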

[2] = system: EfPiwi piRISC loaded with L1MC piRNA (26 nt); test: pre-steady-state target cleavage rate (min^-1); guide: L1MC piRNA 5'p-UAACUAAAUACUAUGCAAGCUGUAGG; MIWI and MILI are mouse PIWI proteins and EfPiwi is from a freshwater sponge; tags in brackets are library labels; higher = faster piRNA-guided slicing of the target
In short: as §1

[3] = auxiliary factor: 500 nM mouse GTSF1
[4] = auxiliary factor: none (no GTSF1)
[5] = auxiliary factor: none (no Gtsf1)
[6] = auxiliary factor: 500 nM Ephydatia muelleri Gtsf1

Sequence | pre-steady-state target cleavage rate [1, 3] | pre-steady-state target cleavage rate [1, 4] | pre-steady-state target cleavage rate [2, 5] | pre-steady-state target cleavage rate [2, 6]
UCCUGCUACAGCUGUGCAUAGUAUUUAGUUA | 0.263 ± 0.025 | 0.0081 ± 0.0032 | 0.000576 ± 0.0092 | –
UCCUGGAUGUCGUUGCAUAGUUUUUACUUA | 0.000631 ± 0.013 | 0.000282 ± 0.025 | 0.000123 ± 0.063 | –
UCCUCCUACACCUUGCAUAGUAUUUAGUAA | 0.226 ± 0.037 | 0.0033 ± 0.0026 | – | 0.00625 ± 0.003
UCCUGGAUGUCCUUGCAUAGUAUUUAGGUA | 0.0702 ± 0.017 | 0.00143 ± 0.0049 | – | 0.00431 ± 0.0026
UCCUGGAUGUCCUUGCAUAGUAUUUAGUA | 0.0747 ± 0.012 | 0.00356 ± 0.0024 | – | 0.00759 ± 0.0039
UCCUGGAUGUCCUUGCAUAGUAAAUAGUUA | 0.034 ± 0.0081 | 0.00497 ± 0.0022 | – | 0.000864 ± 0.0084
UCCUGGAUCAGCUUGCAUAGUUAUUAGUAA | 0.00826 ± 0.0047 | 0.00216 ± 0.0026 | – | 0.00246 ± 0.0032
UCCUCCUUGAGCUUGCAUAGUAUUUACAAA | 0.0856 ± 0.023 | 0.00119 ± 0.0045 | – | 0.00316 ± 0.0022
UCCUGGAAAGCUUGCAUAGUAUUUAGUUA | 0.276 ± 0.016 | 0.00624 ± 0.0022 | – | 0.035 ± 0.0098
UCCUCCUACAGCUUGCUUAGUAUUUAGAUA | 0.15 ± 0.018 | 0.00198 ± 0.0026 | – | 0.00689 ± 0.0038
UCCUCCUAGAGCUUGCAUAGUAAUUAGUUA | 0.264 ± 0.029 | 0.00317 ± 0.0031 | – | 0.011 ± 0.0039
UCCUGGUACAGCUUGCAUAAUAUUUAGUUA | 0.338 ± 0.068 | 0.0064 ± 0.0032 | – | 0.00307 ± 0.0027
UCCUGGAACAGGAUGCAUAGUAUUUAGUUA | 0.285 ± 0.016 | 0.0116 ± 0.0027 | – | 0.00753 ± 0.0018
UCCUCCUACAGGAAGCAUAGUAUUUAGUUA | 0.292 ± 0.011 | 0.00603 ± 0.0024 | – | 0.0159 ± 0.0041
UCCUGGAUCAAGCUUGCAUAGUAUUUAGUUA | 0.237 ± 0.018 | 0.0103 ± 0.0028 | – | 0.0542 ± 0.012
UCCUGCUACAGCUUGCAUACUAUUUACUUA | 0.0359 ± 0.011 | 0.00132 ± 0.0051 | 0.00015 ± 0.047 | –
UCCUGGAACAGCAUGCAUAGUAUAUAGUUA | 0.247 ± 0.025 | 0.0058 ± 0.0025 | – | 0.0106 ± 0.005
UCCUCCUAGAGCUUGCAUAGUAUUAAGUUA | 0.279 ± 0.035 | 0.00261 ± 0.0029 | – | 0.00604 ± 0.0026
UCCUGCUACAGUUUGCAUAGUAUUUAGUUA | 0.296 ± 0.015 | 0.0106 ± 0.0023 | – | 0.0365 ± 0.011
UCCUGGUACCAGCUUGCAUAGUAUUUAGUUA | 0.276 ± 0.043 | 0.00866 ± 0.0047 | – | 0.0109 ± 0.0044
UCCUGGAUCGGCUUGCAUAGUAUUUAGUUA | 0.261 ± 0.016 | 0.0131 ± 0.0022 | – | 0.0523 ± 0.0092
UCCUGGUACAGCUUGCUUAGUAAUUAGUUA | 0.128 ± 0.036 | 0.0116 ± 0.0032 | – | 0.00675 ± 0.0033
UCCUGGAUGUGCUUGCAUAGUUUUUACUUA | 0.00432 ± 0.0043 | 0.00107 ± 0.0069 | – | 0.000497 ± 0.0077
UCCUGGAUGAGCUGGCAUAGUAUUUAGUUA | 0.185 ± 0.016 | 0.0101 ± 0.0034 | – | 0.0103 ± 0.0035
UCCUGGAUGUCGUUCGCAUAGUAUUUAGUUA | 0.101 ± 0.013 | 0.00567 ± 0.0028 | – | 0.00486 ± 0.0031
UCCUGGUACGAGCUUGCAUAGUAUUUAGUUA | 0.247 ± 0.045 | 0.0102 ± 0.0039 | 0.000315 ± 0.062 | –

Part of the list above, in markdown.

| Sequence | pre-steady-state target cleavage rate [1, 3] | pre-steady-state target cleavage rate [1, 4] | pre-steady-state target cleavage rate [2, 5] | pre-steady-state target cleavage rate [2, 6] |
| --- | --- | --- | --- | --- |
| UCCUGGAUGUCCUUGCAUAGUAAAUAGUUA | 0.034 ± 0.0081 | 0.00497 ± 0.0022 | – | 0.000864 ± 0.0084 |
| UCCUGGAUCAGCUUGCAUAGUUAUUAGUAA | 0.00826 ± 0.0047 | 0.00216 ± 0.0026 | – | 0.00246 ± 0.0032 |
| UCCUGGAAAGCUUGCAUAGUAUUUAGUUA | 0.276 ± 0.016 | 0.00624 ± 0.0022 | – | 0.035 ± 0.0098 |
| UCCUGGAUGUCGUUCGCAUAGUAUUUAGUUA | 0.101 ± 0.013 | 0.00567 ± 0.0028 | – | 0.00486 ± 0.0031 |

The list goes on.

Sequence | pre-steady-state target cleavage rate [1, 3] | pre-steady-state target cleavage rate [1, 4] | pre-steady-state target cleavage rate [2, 5] | pre-steady-state target cleavage rate [2, 6]
UCCUCGCUACAGCUUGCAUAGUAUUUAGUUA | 0.276 ± 0.02 | 0.00839 ± 0.0032 | – | 0.0505 ± 0.017
UCCUGGAUGUCGAACGAAUAGUAUUUAGUUA | 0.000589 ± 0.0077 | < 0.0001 | – | 0.00022 ± 0.011
UCCUGGUACAGCAUGCAUAGAAUUUAGUUA | 0.197 ± 0.07 | 0.0019 ± 0.0057 | – | 0.000831 ± 0.015
UCCUGGAUGUCGAUGCAAAGUAUAUAGUUA | 0.00242 ± 0.0041 | 0.00102 ± 0.0059 | 0.000434 ± 0.02 | –
UCCUGGAUCAGGUUGGAUAGUAUUUAGUUA | 0.164 ± 0.013 | 0.0112 ± 0.0027 | – | 0.00425 ± 0.003
UCCUCCUACUGCUUGCAAAGUAUUUAGUUA | 0.138 ± 0.011 | 0.00644 ± 0.0018 | – | 0.0558 ± 0.017
UCCUGCUAGACCUUGCAUAGUAUUUAGUUA | 0.171 ± 0.02 | 0.00811 ± 0.0031 | 0.000879 ± 0.009 | –
UCCUGGAUCAGCUUGCAUAGAAUUUAGAAA | 0.0123 ± 0.0052 | 0.000603 ± 0.0096 | – | 0.00102 ± 0.0052
UCCUGCUACAGCUUGCAUUCUAUUUAGUUA | 0.0454 ± 0.0087 | 0.00339 ± 0.0024 | – | 0.001 ± 0.0042
UCCUGGAUGAGUCUUGCAUAGUAUUUAGUUA | 0.105 ± 0.016 | 0.0093 ± 0.0029 | 0.000543 ± 0.018 | –
UCCUCCUAGAGCUUGCAUAGUAUAUAGUUA | 0.249 ± 0.029 | 0.00315 ± 0.0025 | – | 0.00597 ± 0.0022
UCCUGGAUGUCGAUGCAUAGUAUUUACUUA | 0.0276 ± 0.01 | 0.00114 ± 0.0047 | – | 0.00125 ± 0.0059
UCCUGGAUUAGCUUGCAUAGUAUUUAGUUA | 0.232 ± 0.016 | 0.00961 ± 0.0024 | – | 0.0447 ± 0.011
UCCUGGAACACCUUGCAUAGUAUUUACUUA | 0.0546 ± 0.018 | 0.00241 ± 0.0036 | – | 0.00139 ± 0.0043
UCCUGGAACUGCUUGCAUAGUAUUUAGAAA | 0.103 ± 0.019 | 0.00165 ± 0.0043 | – | 0.00485 ± 0.0026
UCCUGCUUCAGCUUGCAUAGUAUAUAGUUA | 0.277 ± 0.025 | 0.00438 ± 0.002 | – | 0.00887 ± 0.0035
UCCUGGAUCACUUGCAUAGUAUUUAGUUA | 0.214 ± 0.018 | 0.0066 ± 0.0022 | – | 0.0567 ± 0.014
UCCUGGAUGAGCUUGCUUAGUAUUUAGAUA | 0.128 ± 0.02 | 0.00238 ± 0.0031 | – | 0.00382 ± 0.0029
UCCUGGAUGUGCUUGCAAAGUUUUUAGUUA | 0.00595 ± 0.0038 | 0.0065 ± 0.0023 | – | 0.000426 ± 0.0088
UCCUGGAUCAGCUUGCAUAGUAUGUUAGUUA | 0.199 ± 0.017 | 0.00633 ± 0.0025 | 0.00269 ± 0.0043 | –
UCCUGGAUCAACUUGCAUAGUAUUUAGUUA | 0.265 ± 0.017 | 0.00729 ± 0.0025 | – | 0.0635 ± 0.018
UCCUCGAACAGCUUGCAUAGUAUUUAGAAA | 0.137 ± 0.019 | 0.00206 ± 0.0036 | – | 0.00534 ± 0.0018
UCCUGGAUGUGCUUGCAUAGUAUUUAUUUA | 0.0305 ± 0.011 | 0.00177 ± 0.0045 | – | 0.00253 ± 0.0041
UCCUCCUACAGCUUGCAUACGUAUUUAGUUA | 0.00561 ± 0.0046 | 0.00122 ± 0.0046 | 0.000123 ± 0.042 | –
UCCUGCUACAGCUAGGAUAGUAUUUAGUUA | 0.259 ± 0.015 | 0.00677 ± 0.0024 | – | 0.011 ± 0.0037
UCCUGGUACAGCUUGCUAAGUAUUUAGUAA | 0.036 ± 0.012 | 0.00141 ± 0.0042 | – | 0.0016 ± 0.0052
